# The list shows a part of the results.
# What was measured:
# Assay in all cases: glycan array binding signal (z-score within array); higher = stronger binding
# Conditions in all cases: glycan notation: IUPAC condensed, linker removed
# [1] = molecular target: Man(a1-2)Man(a1-2)Man(a1-3)Man
# How it was run: (§1)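 Glycan array data came from 3228 arrays in the Consortium for Functional Glycomics database, and only arrays with an available protein sequence were kept. Glycan names were put into IUPAC-condensed notation, and columns mapping to the same glycan were averaged. The binding signal is a within-array Z-score, averaged across arrays of one protein sequence run at different concentrations or buffers and across linkers. A negative Z-score can be read as non-binding.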
# [2] = molecular target: Man(a1-2)Man(a1-2)Man(a1-6)[Man(a1-3)]Man
# How it was run: as §1
# Man(a1-2)Man(a1-3)Man = molecular target: Man(a1-2)Man(a1-3)Man
# How it was run: as §1
# [3] = molecular target: Man(a1-2)Man(a1-3)[Man(a1-2)Man(a1-6)]Man
# How it was run: as §1
# [4] = molecular target: Man(a1-2)Man(a1-3)[Man(a1-2)Man(a1-6)]Man(a1-6)[Man(a1-2)Man(a1-2)Man(a1-3)]Man
# How it was run: as §1
# [5] = molecular target: Man(a1-2)Man(a1-3)[Man(a1-2)Man(a1-6)]Man(a1-6)[Man(a1-2)Man(a1-2)Man(a1-3)]Man(b1-4)GlcNAc(b1-4)GlcNAc
# How it was run: as §1
# [6] = molecular target: Man(a1-2)Man(a1-3)[Man(a1-6)]Man(a1-6)[Man(a1-2)Man(a1-3)]Man(b1-4)GlcNAc(b1-4)GlcNAc
# How it was run: as §1
# [7] = molecular target: Man(a1-2)Man(a1-6)[Man(a1-3)]Man(a1-6)[Man(a1-2)Man(a1-2)Man(a1-3)]Man
# How it was run: as §1
# [8] = molecular target: Man(a1-2)Man(a1-6)[Man(a1-3)]Man(a1-6)[Man(a1-2)Man(a1-2)Man(a1-3)]Man(b1-4)GlcNAc(b1-4)GlcNAc
# How it was run: as §1
# Man(a1-3)[Man(a1-6)]Man = molecular target: Man(a1-3)[Man(a1-6)]Man
# How it was run: as §1
# [9] = molecular target: Man(a1-3)[Man(a1-6)]Man(a1-6)[Man(a1-2)Man(a1-3)]Man(b1-4)GlcNAc(b1-4)GlcNAc
# How it was run: as §1
# [10] = molecular target: Man(a1-3)[Man(a1-6)]Man(a1-6)[Man(a1-3)]Man
# How it was run: as §1
# [11] = molecular target: Man(a1-3)[Man(a1-6)]Man(a1-6)[Man(a1-3)]Man(b1-4)GlcNAc(b1-4)GlcNAc
# How it was run: as §1
# [12] = molecular target: Man(a1-3)[Man(a1-6)]Man(b1-4)GlcNAc(b1-4)GlcNAc
# How it was run: as §1
# Man(a1-6)Man = molecular target: Man(a1-6)Man
# How it was run: as §1
# Man(b1-4)GlcNAc = molecular target: Man(b1-4)GlcNAc
# How it was run: as §1
# Neu5Ac(a2-3)Gal = molecular target: Neu5Ac(a2-3)Gal
# How it was run: as §1
# [13] = molecular target: Neu5Ac(a2-3)Gal(b1-3)GalNAc
# How it was run: as §1
# [14] = molecular target: Neu5Ac(a2-3)Gal(b1-3)GalNAc(b1-3)Gal(a1-4)Gal(b1-4)Glc
# How it was run: as §1
# [15] = molecular target: Neu5Ac(a2-3)Gal(b1-3)GalNAc(b1-3)Gal(b1-4)GlcNAc
# How it was run: as §1
# [16] = molecular target: Neu5Ac(a2-3)Gal(b1-3)GalNAc(b1-4)[Neu5Ac(a2-3)]Gal(b1-4)Glc
# How it was run: as §1
# [17] = molecular target: Neu5Ac(a2-3)Gal(b1-3)GalNAc6S
# How it was run: as §1
# [18] = molecular target: Neu5Ac(a2-3)Gal(b1-3)GlcNAc
# How it was run: as §1
# [19] = molecular target: Neu5Ac(a2-3)Gal(b1-3)GlcNAc(b1-3)Gal(b1-3)GlcNAc
# How it was run: as §1
# [20] = molecular target: Neu5Ac(a2-3)Gal(b1-3)GlcNAc6S
# How it was run: as §1
# [21] = molecular target: Neu5Ac(a2-3)Gal(b1-3)[Fuc(a1-4)]GlcNAc
# How it was run: as §1
# [22] = molecular target: Neu5Ac(a2-3)Gal(b1-3)[Fuc(a1-4)]GlcNAc(b1-3)Gal(b1-3)[Fuc(a1-4)]GlcNAc
# How it was run: as §1
# [23] = molecular target: Neu5Ac(a2-3)Gal(b1-3)[Fuc(a1-4)]GlcNAc(b1-3)Gal(b1-4)[Fuc(a1-3)]GlcNAc
# How it was run: as §1
# [24] = molecular target: Neu5Ac(a2-3)Gal(b1-3)[Neu5Ac(a2-3)Gal(b1-4)]GlcNAc
# How it was run: as §1
# [25] = molecular target: Neu5Ac(a2-3)Gal(b1-3)[Neu5Ac(a2-6)]GalNAc
# How it was run: as §1
# Neu5Ac(a2-3)Gal(b1-4)Glc = molecular target: Neu5Ac(a2-3)Gal(b1-4)Glc
# How it was run: as §1
# [26] = molecular target: Neu5Ac(a2-3)Gal(b1-4)GlcNAc
# How it was run: as §1
# [27] = molecular target: Neu5Ac(a2-3)Gal(b1-4)GlcNAc(b1-2)Man(a1-3)[GlcNAc(b1-2)Man(b1-4)GlcNAc(b1-2)Man(a1-6)]Man(b1-4)GlcNAc(b1-4)GlcNAc
# How it was run: as §1
# [28] = molecular target: Neu5Ac(a2-3)Gal(b1-4)GlcNAc(b1-2)Man(a1-3)[Neu5Ac(a2-6)Gal(b1-4)GlcNAc(b1-2)Man(a1-6)]Man(b1-4)GlcNAc(b1-4)GlcNAc
# How it was run: as §1
# [29] = molecular target: Neu5Ac(a2-3)Gal(b1-4)GlcNAc(b1-3)Gal(b1-3)GlcNAc
# How it was run: as §1
# [30] = molecular target: Neu5Ac(a2-3)Gal(b1-4)GlcNAc(b1-3)Gal(b1-4)GlcNAc
# How it was run: as §1
# [31] = molecular target: Neu5Ac(a2-3)Gal(b1-4)GlcNAc(b1-3)Gal(b1-4)GlcNAc(b1-3)Gal(b1-4)GlcNAc
# How it was run: as §1
# [32] = molecular target: Neu5Ac(a2-3)Gal(b1-4)GlcNAc(b1-3)Gal(b1-4)[Fuc(a1-3)]GlcNAc
# How it was run: as §1
# [33] = molecular target: Neu5Ac(a2-3)Gal(b1-4)GlcNAc(b1-3)GalNAc
# How it was run: as §1
# [34] = molecular target: Neu5Ac(a2-3)Gal(b1-4)GlcNAc(b1-6)[Gal(b1-3)]GalNAc
# How it was run: as §1
# [35] = molecular target: Neu5Ac(a2-3)Gal(b1-4)GlcNAc(b1-6)[Neu5Ac(a2-3)Gal(b1-3)]GalNAc
# How it was run: as §1
# [36] = molecular target: Neu5Ac(a2-3)Gal(b1-4)GlcNAc6S
# How it was run: as §1
# [37] = molecular target: Neu5Ac(a2-3)Gal(b1-4)[Fuc(a1-3)]GlcNAc
# How it was run: as §1
# [38] = molecular target: Neu5Ac(a2-3)Gal(b1-4)[Fuc(a1-3)]GlcNAc(b1-3)Gal
# How it was run: as §1
# [39] = molecular target: Neu5Ac(a2-3)Gal(b1-4)[Fuc(a1-3)]GlcNAc(b1-3)Gal(b1-4)GlcNAc
# How it was run: as §1
binder,measurement,setting,value
"Spy 2007 (Streptococcus pyogenes), Q99XV3 (protein) MKKGFFLMAMVVSLVMIAGCDKSANPKQPTQGMSVVTSFYPMYAMTKEVSGDLNDVRMIQSGAGIHSFEPSVNDVAAIYDADLFVYHSHTLEAWARDLDPNLKKSKVDVFEASKPLTLDRVKGLEDMEVTQGIDPATLYDPHTWTDPVLAGEEAVNIAKELGRLDPKHKDSYTKNAKAFKKEAEQLTEEYTQKFKKVRSKTFVTQHTAFSYLAKRFGLKQLGISGISPEQEPSPRQLKEIQDFVKEYNVKTIFAEDNVNPKIAHAIAKSTGAKVKTLSPLEAAPSGNKTYLENLRANLEVLYQQLK",glycan array binding signal (z-score),[1],0.221
same,glycan array binding signal (z-score),[2],1.02
same,glycan array binding signal (z-score),Man(a1-2)Man(a1-3)Man,-0.619
same,glycan array binding signal (z-score),[3],-0.508
same,glycan array binding signal (z-score),[4],-0.32
same,glycan array binding signal (z-score),[5],-0.857
same,glycan array binding signal (z-score),[6],-0.649
same,glycan array binding signal (z-score),[7],0.879
same,glycan array binding signal (z-score),[8],-0.52
same,glycan array binding signal (z-score),Man(a1-3)[Man(a1-6)]Man,0.138
same,glycan array binding signal (z-score),[9],-0.59
same,glycan array binding signal (z-score),[10],-0.793
same,glycan array binding signal (z-score),[11],0.513
same,glycan array binding signal (z-score),[12],-0.283
same,glycan array binding signal (z-score),Man(a1-6)Man,-0.677
same,glycan array binding signal (z-score),Man(b1-4)GlcNAc,-0.212
same,glycan array binding signal (z-score),Neu5Ac(a2-3)Gal,0.218
same,glycan array binding signal (z-score),[13],-0.678
same,glycan array binding signal (z-score),[14],0.678
same,glycan array binding signal (z-score),[15],-0.498
same,glycan array binding signal (z-score),[16],-0.636
same,glycan array binding signal (z-score),[17],-0.126
same,glycan array binding signal (z-score),[18],-0.163
same,glycan array binding signal (z-score),[19],0.017
same,glycan array binding signal (z-score),[20],-0.663
same,glycan array binding signal (z-score),[21],-0.485
same,glycan array binding signal (z-score),[22],-0.538
same,glycan array binding signal (z-score),[23],-0.583
same,glycan array binding signal (z-score),[24],0.451
same,glycan array binding signal (z-score),[25],1.08
same,glycan array binding signal (z-score),Neu5Ac(a2-3)Gal(b1-4)Glc,0.127
same,glycan array binding signal (z-score),[26],0.109
same,glycan array binding signal (z-score),[27],0.801
same,glycan array binding signal (z-score),[28],-0.93
same,glycan array binding signal (z-score),[29],1.57
same,glycan array binding signal (z-score),[30],-0.354
same,glycan array binding signal (z-score),[31],2.22
same,glycan array binding signal (z-score),[32],-0.027
same,glycan array binding signal (z-score),[33],-0.611
same,glycan array binding signal (z-score),[34],-0.443
same,glycan array binding signal (z-score),[35],0.414
same,glycan array binding signal (z-score),[36],1.47
same,glycan array binding signal (z-score),[37],0.233
same,glycan array binding signal (z-score),[38],1.49
same,glycan array binding signal (z-score),[39],0.479

# At a glance, part of the list above:
binder,measurement,setting,value
"Spy 2007 (Streptococcus pyogenes), Q99XV3 (protein) MKKGFFLMAMVVSLVMIAGCDKSANPKQPTQGMSVVTSFYPMYAMTKEVSGDLNDVRMIQSGAGIHSFEPSVNDVAAIYDADLFVYHSHTLEAWARDLDPNLKKSKVDVFEASKPLTLDRVKGLEDMEVTQGIDPATLYDPHTWTDPVLAGEEAVNIAKELGRLDPKHKDSYTKNAKAFKKEAEQLTEEYTQKFKKVRSKTFVTQHTAFSYLAKRFGLKQLGISGISPEQEPSPRQLKEIQDFVKEYNVKTIFAEDNVNPKIAHAIAKSTGAKVKTLSPLEAAPSGNKTYLENLRANLEVLYQQLK",glycan array binding signal (z-score),Neu5Ac(a2-3)Gal(b1-4)Glc,0.127
same,glycan array binding signal (z-score),[26],0.109
same,glycan array binding signal (z-score),[27],0.801
same,glycan array binding signal (z-score),[28],-0.93
same,glycan array binding signal (z-score),[29],1.57
same,glycan array binding signal (z-score),[30],-0.354
same,glycan array binding signal (z-score),[31],2.22
same,glycan array binding signal (z-score),[32],-0.027
same,glycan array binding signal (z-score),[33],-0.611

# Reference: the supplement of paper PMC8728848
